PubChem BioAssay AID1259274 | Sanger Institute | 2017

Purpose: 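Kinases RKO cells need to grow, alone or with anchor drugs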 (primary screen)
Cells: human RKO colorectal cancer cells
Reagents: siRNA pool against human genes
Treatment: anchor drugs BYL719 at 1 µM, cetuximab at 5 µg/ml or trametinib at 10 nM; DMSO vehicle as the no-drug arm
Measured: 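Viability of cells versus control pool 2 (non-targeting) averaged across replicates; knock-down-only robust z-score; for every anchor drug (BYL719, cetuximab, trametinib) a synergy score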
Direction: viability z-score, siRNA alone: higher = more viable cells; low values mean essential gene; viability, siRNA alone, vehicle: higher = more viable cells; synergy score with BYL719 and synergy score with Trametinib and synergy score with Cetuximab: higher = stronger combined killing with the drug
Active means: 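Essential when the robust viability z-score with siRNA only falls below -3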
Calls: active = essential when knocked down alone; inactive = no change alone
Here is one part, drawn at random, of 794 reagents. In the full data, 11 (1.4%) were called active. 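Calls rest on knock-down without drug only; synergy scores with anchor drugs were not used for the essential call.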 Unmarked entries are inactive. No viability above 1 is reported: the scale is capped. Reagent sequences are not shown. Not stated in the record: the amount of reagent, the time to read-out.

"viability z-score, siRNA alone","viability, siRNA alone, vehicle (fraction of control)",synergy score with BYL719,synergy score with Trametinib,synergy score with Cetuximab,gene knocked down
0.3,0.924,-0.0331,-0.294,-0.0763,SCYL3 (SCY1 like pseudokinase 3)
1.19,1,-0.0507,-0.317,0,WNK2 (WNK lysine deficient protein kinase 2)
1.19,1,-0.00355,-0.0496,0.0882,ALPK3 (alpha kinase 3)
1.19,1,-0.0624,-0.0874,0.0338,NME4 (NME/NM23 nucleoside diphosphate kinase 4)
-1.01,0.811,0.0543,-0.105,-0.082,MYLK2 (myosin light chain kinase 2)
-0.0546,0.893,0.0869,-0.112,0.00842,PRPS1L1 (phosphoribosyl pyrophosphate synthetase 1 like 1)
-0.641,0.843,-0.0526,-0.107,-0.0317,PIP5K1A (phosphatidylinositol-4-phosphate 5-kinase type 1 alpha)
-0.149,0.885,-0.0266,-0.0245,0.0712,SRMS
0.248,0.919,0.0922,0.0459,0.0898,MAPK1 (mitogen-activated protein kinase 1)
0.253,0.92,-0.0378,-0.16,0.00162,FGFR3 (fibroblast growth factor receptor 3)
-0.376,0.866,-0.122,0.0128,0.039,GRK6 (G protein-coupled receptor kinase 6)
-0.148,0.885,-0.0463,-0.0647,-0.0357,ACVR1 (activin A receptor type 1)
-0.173,0.883,-0.0885,-0.0263,-0.0428,BMPR1A (bone morphogenetic protein receptor type 1A)
1.19,1,0.0297,-0.158,0.0397,TTBK1 (tau tubulin kinase 1)
-1.26,0.79,-0.0339,-0.166,-0.0562,MAPK6 (mitogen-activated protein kinase 6)
-2.1,0.718,-0.124,-0.0968,-0.0797,CTCF (CCCTC-binding factor)
0.359,0.929,0.0151,-0.0479,0.0896,MAPKAPK2 (MAPK activated protein kinase 2)
-1.73,0.75,-0.164,-0.265,-0.0378,ADCK1 (aarF domain containing kinase 1)
0.246,0.919,-0.0458,-0.109,-0.0809,CSNK2B (casein kinase 2 beta)
1.19,1,-0.0929,-0.207,0.0197,MAST1 (microtubule associated serine/threonine kinase 1)
-0.314,0.871,0.00688,-0.0109,-0.0276,NME6 (NME/NM23 nucleoside diphosphate kinase 6)
-0.0098,0.897,-0.0791,-0.129,-0.016,FN3K (fructosamine 3 kinase)
-2.19,0.711,-0.166,-0.233,-0.0811,"FES (FES proto-oncogene, tyrosine kinase)"
1.19,1,-0.0223,-0.0712,0,PAK6 (p21 (RAC1) activated kinase 6)
1.19,1,-0.0524,-0.0894,0.149,MAPK8 (mitogen-activated protein kinase 8)
-0.42,0.862,-0.0112,-0.0659,-0.0791,GRK2 (G protein-coupled receptor kinase 2)
-0.479,0.857,-0.084,-0.142,0.0329,PDGFRB (platelet derived growth factor receptor beta)
-0.306,0.872,-0.224,-0.306,-0.128,TSKS (testis specific serine kinase substrate)
-0.426,0.862,0.0682,0.0738,0.0152,PRKCH (protein kinase C eta)
-0.063,0.893,-0.12,-0.113,-0.0662,PHKA2 (phosphorylase kinase regulatory subunit alpha 2)
-0.16,0.884,-0.14,-0.218,-0.116,CDK2 (cyclin dependent kinase 2)
0.532,0.944,-0.0829,-0.209,-0.00321,"FGR (FGR proto-oncogene, Src family tyrosine kinase)"
-0.287,0.873,-0.0073,0.0714,-0.0163,ETNK2 (ethanolamine kinase 2)
0.039,0.901,-0.0987,-0.15,0.00794,PDIK1L (PDLIM1 interacting kinase 1 like)
0.353,0.928,-0.0663,-0.0599,0.00197,CSNK1G3 (casein kinase 1 gamma 3)
-0.847,0.825,-0.125,-0.183,-0.0596,CHKA (choline kinase alpha)
0.0828,0.905,-0.0523,-0.178,-0.0892,MATK (megakaryocyte-associated tyrosine kinase)
-0.578,0.849,-0.06,-0.178,-0.151,MAPK4 (mitogen-activated protein kinase 4)
0.668,0.955,0.0362,-0.0919,0.0927,PDK4 (pyruvate dehydrogenase kinase 4)
1.19,1,-0.0936,0.0335,0.104,CPNE3 (copine 3)
0.649,0.954,0.0188,-0.193,0.037,CSNK2A1 (casein kinase 2 alpha 1)
0.772,0.964,0.00391,0.0234,0.0282,MST1R (macrophage stimulating 1 receptor)
-0.149,0.885,-0.107,-0.133,-0.0087,RPS6KA5 (ribosomal protein S6 kinase A5)
1.19,1,0.0522,-0.231,0.00478,STK32C (serine/threonine kinase 32C)
-0.809,0.829,-0.136,-0.188,-0.0633,CLK3 (CDC like kinase 3)
-0.0826,0.891,-0.00434,-0.0642,0.0211,STRADA (STE20 related adaptor alpha)
-0.868,0.824,-0.136,-0.224,-0.14,PRKAR2A
0.144,0.91,0.0462,0.0104,0.0532,FN3KRP (fructosamine 3 kinase related protein)
0.22,0.917,-0.106,-0.368,-0.0297,CSNK1E (casein kinase 1 epsilon)
-0.00632,0.897,0.073,0.0791,0.0094,PANK4 (pantothenate kinase 4 (inactive))
-0.423,0.862,-0.11,-0.34,-0.0626,PAPSS2 (3'-phosphoadenosine 5'-phosphosulfate synthase 2)
0.435,0.935,-0.13,-0.162,0.0439,LIMK2 (LIM domain kinase 2)
-0.227,0.879,-0.0867,-0.166,-0.101,MAP3K6 (mitogen-activated protein kinase kinase kinase 6)
-1.22,0.793,0.0517,-0.0675,0.114,"GUCY2D (guanylate cyclase 2D, retinal)"
-1.26,0.79,0.018,-0.0058,-0.113,TAOK3 (TAO kinase 3)
1.19,1,0.0422,-0.115,0.0196,KCNH8 (potassium voltage-gated channel subfamily H member 8)
0.969,0.981,-0.0626,0.00356,0.151,DCLK2 (doublecortin like kinase 2)
0.737,0.961,-0.0477,-0.091,-0.029,STKLD1 (serine/threonine kinase like domain containing 1)
0.142,0.91,-0.0197,-0.216,-0.0102,PANK2 (pantothenate kinase 2)
1.19,1,-0.0809,0.000945,0.00478,MAPK10 (mitogen-activated protein kinase 10)
1.19,1,-0.0665,0.0103,0.0493,DUSP21 (dual specificity phosphatase 21)
0.727,0.96,-0.0809,-0.339,-0.0373,TCF7L2 (transcription factor 7 like 2)
-1.35,0.783,0.00232,-0.0775,-0.0812,RPS6KA4 (ribosomal protein S6 kinase A4)

3 entries already listed, ordered by “synergy score with BYL719”, lowest first:
"viability z-score, siRNA alone","viability, siRNA alone, vehicle (fraction of control)",synergy score with BYL719,synergy score with Trametinib,synergy score with Cetuximab,gene knocked down
-2.19,0.711,-0.166,-0.233,-0.0811,"FES (FES proto-oncogene, tyrosine kinase)"
-0.0098,0.897,-0.0791,-0.129,-0.016,FN3K (fructosamine 3 kinase)
1.19,1,-0.0223,-0.0712,0,PAK6 (p21 (RAC1) activated kinase 6)
